# Results published in the supplement of paper PMC12009310.
# Counter-ions that a name gives are not always drawn. ± gives the standard deviation of the averaged measurements. The list shows a part of the results. Part of the spread comes from offsets between plates or batches.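 The cells are a mouse kidney inner medullary collecting duct line, silenced either for the ciliary gene Rpgrip1l or with a non-targeting control siRNA.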
# Experiments:
# [1] = tested on: mIMCD3; assay: robust z score of cell number vs plate controls; higher = more cells (less cytotoxic); conditions: 10 µM, 48 h
# [2] = tested on: mIMCD3; assay: robust z score of cilia incidence (% cells with single cilium) vs plate controls; higher = more ciliated cells; conditions: 10 µM; 48 h; siRNA: siScr
# [3] = tested on: mIMCD3; assay: robust z score of cilia incidence (% cells with single cilium) vs plate controls; higher = more ciliated cells (rescue of cilia loss); conditions: 10 µM; 48 h; siRNA: siRpgrip1l
SMILES,robust z score of cell number ([1]; siRNA: siRpgrip1l),robust z score of cell number ([1]; siRNA: siScr),robust z score of cilia incidence [2],robust z score of cilia incidence [3]
C=CCN1CC[C@]23c4c5ccc(O)c4O[C@H]2/C(=N/NC(=O)c2ccccc2)CC[C@@]3(O)[C@H]1C5 [Naloxone benzoylhydrazone],-22.3 ± 25,-3.07 ± 1.5,2.02 ± 2.5,-8.09 ± 1.6
COc1ccc(-n2nc(C(F)(F)F)cc2-c2ccc(Cl)cc2)cc1,-192 ± 220,-44.5 ± 11,-25.2 ± 16,-153 ± 110
"CC12NC(Cc3ccccc31)c1ccccc12 (single isomer, unassigned; (+)) [(+)-MK 801 maleate]",-2.04 ± 0.76,-5.38 ± 7.3,-3.26 ± 1.7,-7.96 ± 1.9
CCCN[C@@H]1CCc2c(OC)cccc2[C@@H]1C [(+)-AJ 76 hydrochloride],0.185 ± 4,-7.68 ± 4.6,-2.76 ± 0.27,-18 ± 2.8
"CC(=O)N1CC[N+](C)(C)CC1 [4-Acetyl-1,1-dimethylpiperazinium iodide]",-8.12 ± 16,2.35 ± 1.8,1.63 ± 1.7,-10.6 ± 9.4
Cc1cccc(C(C)c2c[nH]cn2)c1C (stereo not drawn) [Medetomidine hydrochloride],-1.9 ± 1.4,-1.92 ± 5.6,-5.053 ± 0.014,-18.4 ± 16
CN1C[C@H](CNC(=O)OCc2ccccc2)C[C@@H]2c3cccc4c3c(cn4C)C[C@H]21 [Metergoline],-49.4 ± 27,-86.8 ± 63,-14 ± 4.3,-40.1 ± 4
COC(=O)/C=C/C(=O)N[C@@H]1CC[C@@]2(O)[C@H]3Cc4ccc(O)c5c4[C@@]2(CCN3CC2CC2)[C@H]1O5 [β-Funaltrexamine hydrochloride],-5.93 ± 1.4,-3.08 ± 2.8,-0.604 ± 4.7,-9.75 ± 2.7
Cc1ccc2c(c1)C1(CCN(CCc3nc(-c4ccccc4)oc3C)CC1)OC(=O)N2,-33 ± 11,-144 ± 110,-57.2 ± 13,-54.7 ± 6.7
CC(C)(Cc1c[nH]c2ccc(Cl)cc12)NCCOc1ccccc1OCC1CC1,-30.616 ± 0.013,-29.8 ± 15,-47.7 ± 11,-30.3 ± 5
N[C@@]1(C(=O)O)CC[C@@H](C(=O)O)C1,11.2 ± 7.9,-1.02 ± 6.4,-0.382 ± 2,-6.96 ± 6.9
C=C(C)CN1CC[C@@]23c4c5ccc(O)c4O[C@H]2c2[nH]c4ccccc4c2C[C@]3(O)C1C5 [SDM25N hydrochloride],-300 ± 210,-39.8 ± 9.5,-54.5 ± 10,-33.1 ± 12
COc1ccc(CNC(=O)/C=C/c2ccc3[nH]cc(CCN(C)C)c3c2)cc1,-0.229 ± 1.8,-2.3 ± 0.084,-3.38 ± 1.5,-11.1 ± 3.6
Fc1ccc(C(OCCN2CCN(C/C=C/c3ccccc3)CC2)c2ccc(F)cc2)cc1,-125 ± 100,-83.4 ± 44,-46.5 ± 2.1,-47.8 ± 25
Cc1nnc2n1-c1sc(CCC(=O)N3CCOCC3)cc1C(c1ccccc1Cl)=NC2,-6.02 ± 2.9,-1.1 ± 2.4,2.33 ± 0.24,-10.1 ± 10
CCCN1CCC[C@@H]2Cc3n[nH]cc3C[C@H]21 [(-)-Quinpirole hydrochloride],-8.03 ± 0.23,1.38 ± 1.3,-0.168 ± 1.5,-14.1 ± 3.5
O=C(O)/C=C/CO [trans-4-Hydroxycrotonic acid],-4.34 ± 0.044,5.26 ± 9.4,1.93 ± 0.024,-10.1 ± 0.44

# Grouped by structure, the entries above with a carbonyl joined to an NH by a bond outside any ring (four)
SMILES,robust z score of cell number ([1]; siRNA: siRpgrip1l),robust z score of cell number ([1]; siRNA: siScr),robust z score of cilia incidence [2],robust z score of cilia incidence [3]
C=CCN1CC[C@]23c4c5ccc(O)c4O[C@H]2/C(=N/NC(=O)c2ccccc2)CC[C@@]3(O)[C@H]1C5 [Naloxone benzoylhydrazone],-22.3 ± 25,-3.07 ± 1.5,2.02 ± 2.5,-8.09 ± 1.6
CN1C[C@H](CNC(=O)OCc2ccccc2)C[C@@H]2c3cccc4c3c(cn4C)C[C@H]21 [Metergoline],-49.4 ± 27,-86.8 ± 63,-14 ± 4.3,-40.1 ± 4
COC(=O)/C=C/C(=O)N[C@@H]1CC[C@@]2(O)[C@H]3Cc4ccc(O)c5c4[C@@]2(CCN3CC2CC2)[C@H]1O5 [β-Funaltrexamine hydrochloride],-5.93 ± 1.4,-3.08 ± 2.8,-0.604 ± 4.7,-9.75 ± 2.7
COc1ccc(CNC(=O)/C=C/c2ccc3[nH]cc(CCN(C)C)c3c2)cc1,-0.229 ± 1.8,-2.3 ± 0.084,-3.38 ± 1.5,-11.1 ± 3.6
